Experimental data from PubChem BioAssay AID1487 (National Center for Advancing Translational Sciences (NCATS), 2009).
The other results are listed elsewhere or left out. The main result of the screen is listed elsewhere. These columns were measured beside it and carry no call. Compounds called inactive in the main read-out are mostly missing here. The note in brackets gives the kind of curve behind each potency; many fits are weak.

Assay: qHTS Assay for Modulators of Lamin A Splicing
Settings: HeLa LMNA splicing GFP/RFP minigene ratio, 48 h
Procedure, shortened: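 S3 HeLa stable clones carrying a lamin A-EGFP splicing minigene plus DsRed2 were seeded at 600 cells/well in Opti-MEM with 2% FBS, pin-dosed and incubated 48 h at 37°C. Acumen cytometry (488 nm) gave the GFP/RFP total-intensity ratio.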

[1] = measured here: RFP viability control channel
[2] = measured here: GFP splicing reporter channel

Compound	AC50 [1]	AC50 [2]
Cc1ccc(O)c(-c2cc3ccccc3[nH]2)c1	10 µM [rising, partial curve]	
Cc1ccc(Cl)cc1NC(=O)CCCN1C(=O)c2cccnc2C1=O		0.0501 µM [rising, full curve, poor fit]
Cc1c(Br)c(=O)oc2c(Br)c(O)c(O)cc12	35.5 µM [rising, single point]	
CC(NC(=O)c1cc(-c2ccccc2)nc2ccccc12)C1CCCO1 (centres undefined)	0.00447 µM [falling, full curve, poor fit]	
O=C(NCc1ccncc1)c1cccc(Cn2cc(Br)cn2)c1	12.6 µM [rising, partial curve]	11.2 µM [rising, single point]
Brc1ccc2c(c1)C(c1ccc(N3CCOCC3)cc1)=NNC(c1cccs1)=N2	11.2 µM [rising, partial curve]	
Fc1ccc(Nc2ccnc(-c3ccc4c(c3)OCO4)n2)cc1		2 µM [falling, partial curve, poor fit]
COc1ccc(CN(C(=O)CSc2nnc(-c3ccccc3F)o2)c2ccc(F)cc2)cc1	20 µM [rising, single point]	14.1 µM [rising, single point]
CCSc1nnc(NC(=O)[C@@H](NC(=O)c2ccc(C(C)(C)C)cc2)C(C)C)s1	15.8 µM [rising, partial curve]	7.94 µM [rising, partial curve, poor fit]
O=C(NCc1ccco1)c1cccnc1Cl	5.62 µM [rising, single point]	5.62 µM [rising, single point]
CCOC(=O)c1ccc(NC(=O)c2oc3c(c2C)-c2nn(Cc4ccccc4Cl)cc2CC3)cc1	25.1 µM [falling, single point]	14.1 µM [falling, single point]
CC1(C)CCCC(C)(C)N1CC(O)COCCOc1ccc(Br)cc1 (centres undefined)	7.94 µM [rising, partial curve]	
CCCCOc1ccccc1C1CC(=O)Nc2cc(C)c(C)cc21 (centres undefined)	35.5 µM [falling, single point]	35.5 µM [falling, single point]
NC1(C(=O)O)CC1	0.00501 µM [falling, full curve, poor fit]	0.00447 µM [falling, full curve, poor fit]
COc1ccc(S(=O)(=O)Nc2cc3c4c(oc3c3ccccc23)CCCC4=O)cc1	35.5 µM [falling, single point]	11.2 µM [falling, partial curve]
CCN1CCN(c2oc(COc3ccc(-c4ccccc4)cc3)nc2C#N)CC1	22.4 µM [rising, partial curve]	14.1 µM [rising, single point]
CN(c1cccc(NC(=O)Nc2cccc(Cl)c2)c1)S(C)(=O)=O	14.1 µM [rising, partial curve]	17.8 µM [rising, partial curve]
COc1ccc(Cl)cc1N(C)C(=O)CCc1nc(-c2ccc(C)cc2)no1	17.8 µM [rising, single point]	11.2 µM [rising, partial curve]
Cc1cccc(C2(c3cccc(C)c3)OC(=O)c3ccccc32)c1	15.8 µM [rising, single point]	11.2 µM [rising, single point]
COC(=O)c1cc(-c2ccc(OC)cc2)n[nH]1	0.794 µM [rising, full curve, poor fit]	
O=C(CSc1nc2c([nH]c3ccccc32)c(=O)n1-c1ccccc1F)Nc1cccc(C(F)(F)F)c1	0.891 µM [falling, partial curve]	
O=C(/C=C/c1cccs1)NC(=S)NNC(=O)c1ccccc1O	20 µM [rising, partial curve]	
CCOC(=O)Cn1cc(/C=C/[N+](=O)[O-])c2ccccc21		35.5 µM [falling, partial curve, poor fit]
COC(=O)CNC(=O)C(NC(=O)OCc1ccccc1)C(C)C (centres undefined)	6.31 µM [falling, partial curve, poor fit]	
CC(CNC(=O)COc1ccccc1)OC(=O)Nc1cccc(Cl)c1 (centres undefined)	11.2 µM [rising, partial curve, poor fit]	
CCc1ccc(NC(=O)Cc2ccc(OC)cc2)cc1	11.2 µM [rising, partial curve, poor fit]	17.8 µM [rising, partial curve, poor fit]
Cc1ccccc1OCC(O)CN1CCN(CCN2C(=O)c3cccc4cccc(c34)C2=O)CC1 (centres undefined)	31.6 µM [rising, single point]	
CCN1CCN(C(=O)c2ccc(Sc3ccccc3Cl)c([N+](=O)[O-])c2)CC1	11.2 µM [rising, partial curve]	

Reprinted at random: 4 records from the list.
Compound	AC50 [1]	AC50 [2]
O=C(NCc1ccco1)c1cccnc1Cl	5.62 µM [rising, single point]	5.62 µM [rising, single point]
O=C(/C=C/c1cccs1)NC(=S)NNC(=O)c1ccccc1O	20 µM [rising, partial curve]	
Cc1ccc(Cl)cc1NC(=O)CCCN1C(=O)c2cccnc2C1=O		0.0501 µM [rising, full curve, poor fit]
Brc1ccc2c(c1)C(c1ccc(N3CCOCC3)cc1)=NNC(c1cccs1)=N2	11.2 µM [rising, partial curve]	

The list continues.

Compound	AC50 [1]	AC50 [2]
Cc1ccccc1-c1ccc2ncnc(N(C)C)c2c1		17.8 µM [falling, single point]
Cc1nc(NC(=O)c2cc3c(s2)CCCCC3)sc1C(=O)N(C)C	14.1 µM [rising, single point]	
COc1ccc(CCNc2oc(Cc3cccc4ccccc34)nc2C#N)cc1OC	15.8 µM [rising, single point]	14.1 µM [rising, partial curve]
O=C(Nc1ccccc1)Nc1nnc(SCC(=O)N2CCCCC2)s1	8.91 µM [falling, partial curve, poor fit]	15.8 µM [falling, single point]
CC1CC1c1ccc(/C=C(\C#N)C(=O)Nc2ccc(Cl)cc2Cl)o1 (centres undefined)	35.5 µM [rising, single point]	35.5 µM [rising, single point]
CC1=C(c2ccc(C)c(C)c2)S(=O)(=O)N(Cc2ccc(C(=O)Nc3cc(F)ccc3F)cc2)C1=O	2.51 µM [rising, partial curve]	0.00501 µM [falling, full curve, poor fit]
CCC(=O)Nc1c(S(=O)(=O)c2ccc(C)cc2)c2nc3ccccc3nc2n1C(C)c1ccccc1 (centres undefined)	2.82 µM [rising, single point]	
Cc1ccc2c(c1)C(=O)OC(C(=O)Nc1ccccc1C(=O)O)C2 (centres undefined)	3.98 µM [falling, full curve, poor fit]	
COc1cccc2c1OC1(C)CC2N(C(=O)c2ccco2)C(=S)N1c1ccc(F)cc1 (centres undefined)	6.31 µM [falling, single point]	
CCOc1ccc(-n2cc(-c3ccccc3)c3c(NC4CCCC4)ncnc32)cc1		0.0355 µM [falling, full curve, poor fit]
COC(=O)c1cccc(NS(=O)(=O)c2ccc(OC)c(OC)c2)c1C	14.1 µM [rising, partial curve]	11.2 µM [rising, partial curve]
Cc1ccc2cc(/C=C(\C#N)C(N)=O)c(N3CCCCC3)nc2c1	11.2 µM [rising, partial curve]	11.2 µM [rising, partial curve]
COc1ccc(-n2cc(C(=O)O)c(=O)cc2C)cc1		2.24 µM [falling, full curve, poor fit]
Cn1nc(-c2ccccc2)c(CSc2ccccc2Cl)c1Cl		20 µM [falling, single point]
O=C(Oc1c(Cl)cc(Cl)c2cccnc12)c1cccs1	12.6 µM [rising, partial curve, poor fit]	
O=C(NCCCN1CCN(c2cccc(Cl)c2)CC1)c1ccc2nc(Cc3ccccc3)oc2c1	11.2 µM [falling, partial curve]	20 µM [falling, partial curve]
O=C(O)c1cccnc1SCc1ccccc1Cl		11.2 µM [falling, single point]
Cc1ccc2nc(NC(=O)c3ccc(S(=O)(=O)N4CCC(C)CC4)cc3)sc2c1		0.631 µM [rising, single point]
CCOC(=O)CCc1c(C)c2ccc(OCc3cc([N+](=O)[O-])ccc3OC)cc2oc1=O		20 µM [rising, single point]
COCCn1c(C)cc(/C=C2\NC(=S)N(C)C2=O)c1C	0.316 µM [rising, full curve]	0.251 µM [rising, partial curve, poor fit]
Cc1ccc(N(CC(O)Cn2c3ccccc3c3ccccc32)S(C)(=O)=O)c(C)c1 (centres undefined)	7.08 µM [rising, partial curve]	
CCOc1c(C=C(C#N)C#N)c2ccccc2n1CC	12.6 µM [rising, partial curve, poor fit]	
CCc1nc2sc3c(c2c(=O)n1NC(=O)CCl)CCCC3		22.4 µM [falling, single point]
CCN(CCO)c1nc(SC)nc2c1sc1nc(-c3ccco3)c3c(c12)CCC3	35.5 µM [falling, single point]	17.8 µM [falling, single point]
Cc1ccnc(NC(=O)C2CCCN(S(=O)(=O)c3cnc[nH]3)C2)c1 (centres undefined)	28.2 µM [rising, single point]	
CCOC(=O)c1c(NC(=O)C2CCCO2)sc2c1CCC2 (centres undefined)	35.5 µM [rising, single point]	14.1 µM [rising, partial curve]
O=C(CSc1nnc(-c2c[nH]c3ccccc23)o1)N(Cc1ccccc1)c1ccc(F)cc1	12.6 µM [rising, partial curve]	14.1 µM [rising, single point]
